Data published in PMC10478313.
These are yes or no findings as the source states them, for the method shown. Binding seen in cells or lysates may run through a third protein. These calls come from enrichment with a bait or labelling near it, and not all partners need be listed.

By UniProt entry, the sequences of proteins in these tests, tags left out.
UniProt Q15436: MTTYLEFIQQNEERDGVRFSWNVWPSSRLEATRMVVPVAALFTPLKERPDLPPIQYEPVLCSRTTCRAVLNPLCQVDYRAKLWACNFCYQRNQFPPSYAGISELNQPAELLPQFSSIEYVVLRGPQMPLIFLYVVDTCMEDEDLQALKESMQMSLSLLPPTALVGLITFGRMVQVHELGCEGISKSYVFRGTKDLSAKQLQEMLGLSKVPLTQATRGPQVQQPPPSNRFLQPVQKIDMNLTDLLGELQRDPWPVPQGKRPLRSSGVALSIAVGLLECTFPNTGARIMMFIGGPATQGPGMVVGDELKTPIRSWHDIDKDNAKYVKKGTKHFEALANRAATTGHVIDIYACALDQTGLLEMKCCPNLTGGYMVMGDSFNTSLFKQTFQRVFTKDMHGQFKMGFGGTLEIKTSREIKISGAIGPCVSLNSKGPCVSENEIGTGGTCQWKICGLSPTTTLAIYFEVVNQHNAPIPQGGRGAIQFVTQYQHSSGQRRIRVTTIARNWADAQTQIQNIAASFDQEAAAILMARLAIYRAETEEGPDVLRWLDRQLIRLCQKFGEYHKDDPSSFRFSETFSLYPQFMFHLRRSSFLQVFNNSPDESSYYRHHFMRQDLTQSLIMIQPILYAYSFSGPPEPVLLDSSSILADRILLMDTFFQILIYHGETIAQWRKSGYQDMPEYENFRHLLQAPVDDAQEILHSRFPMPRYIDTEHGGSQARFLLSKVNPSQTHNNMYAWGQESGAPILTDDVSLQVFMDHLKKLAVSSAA
UniProt P07355: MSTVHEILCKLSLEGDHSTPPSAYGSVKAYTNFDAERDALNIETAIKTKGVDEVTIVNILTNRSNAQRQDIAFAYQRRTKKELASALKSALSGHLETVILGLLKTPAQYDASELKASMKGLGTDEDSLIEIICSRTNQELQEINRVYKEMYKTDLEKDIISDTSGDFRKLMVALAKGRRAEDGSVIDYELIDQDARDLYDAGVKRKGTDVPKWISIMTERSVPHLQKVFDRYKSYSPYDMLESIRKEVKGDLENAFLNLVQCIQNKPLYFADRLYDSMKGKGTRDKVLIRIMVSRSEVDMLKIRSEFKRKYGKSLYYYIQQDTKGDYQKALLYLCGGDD

Target: Sec23 homolog A (SEC23A) (human (endogenous in MKN45 and HGC27)) (UniProt Q15436)
Test: affinity purification with mass spectrometry; IP with anti-SEC23A antibody and IgG from MKN45 cells under ER stress; silver staining and mass spectrometry

- binding: binds
Substance: Annexin A2 (ANXA2) (from UniProt P07355 1-339)
